Data: article PMC11233663, “ZBP1 condensate formation synergizes Z-NAs recognition and signal transduction” (Cell Death & Disease, 2024)
No constants are given. Whether binding was seen depends on the method and setting. For some assays here: Binding seen in cells or lysates may run through a third protein. Some results given as binding are weak or reduced against the parent protein; the word gives no strength. For some assays here: Where a sequence is shown, tags or fusion partners need not be part of it.

Amino acid sequences for entries named in this document (tags omitted). Residues count along the entry.
UniProt Q13546, residues 496-583: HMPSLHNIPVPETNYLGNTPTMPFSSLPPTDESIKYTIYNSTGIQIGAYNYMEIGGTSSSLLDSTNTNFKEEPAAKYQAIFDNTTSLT
UniProt Q9Y572: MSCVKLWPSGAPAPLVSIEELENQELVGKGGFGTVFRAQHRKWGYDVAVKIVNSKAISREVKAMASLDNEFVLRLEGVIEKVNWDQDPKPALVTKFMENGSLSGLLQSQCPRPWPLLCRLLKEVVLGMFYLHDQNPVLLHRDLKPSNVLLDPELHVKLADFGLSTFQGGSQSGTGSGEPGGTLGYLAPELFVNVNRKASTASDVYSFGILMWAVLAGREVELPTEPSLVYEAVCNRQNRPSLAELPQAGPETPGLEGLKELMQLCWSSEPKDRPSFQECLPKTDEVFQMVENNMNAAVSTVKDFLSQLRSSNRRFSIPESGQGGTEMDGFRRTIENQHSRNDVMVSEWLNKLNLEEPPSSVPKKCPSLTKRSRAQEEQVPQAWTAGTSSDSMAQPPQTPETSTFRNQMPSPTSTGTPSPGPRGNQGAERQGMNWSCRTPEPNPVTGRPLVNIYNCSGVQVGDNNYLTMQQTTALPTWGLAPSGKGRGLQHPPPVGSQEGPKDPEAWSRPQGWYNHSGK

T1: GFP-tagged wild-type full-length ZBP1 (human) (UniProt Q9H171)
T1 sequence: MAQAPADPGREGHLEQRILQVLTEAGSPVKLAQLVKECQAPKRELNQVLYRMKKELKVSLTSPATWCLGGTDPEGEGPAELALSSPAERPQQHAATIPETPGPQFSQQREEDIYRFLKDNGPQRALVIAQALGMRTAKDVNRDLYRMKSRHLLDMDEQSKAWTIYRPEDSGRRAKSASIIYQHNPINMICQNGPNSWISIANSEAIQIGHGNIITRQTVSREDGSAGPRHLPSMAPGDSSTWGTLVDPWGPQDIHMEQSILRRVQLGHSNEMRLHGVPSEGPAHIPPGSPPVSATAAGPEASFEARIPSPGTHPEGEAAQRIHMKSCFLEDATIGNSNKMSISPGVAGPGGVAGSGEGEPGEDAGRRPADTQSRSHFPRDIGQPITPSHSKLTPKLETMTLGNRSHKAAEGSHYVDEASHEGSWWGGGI

B1: ZBP1-RHIM 1 + 2 (residues 168-280) (domain or fragment, human, UniProt Q9H171 168-280, looked up)
chain: EDSGRRAKSASIIYQHNPINMICQNGPNSWISIANSEAIQIGHGNIITRQTVSREDGSAGPRHLPSMAPGDSSTWGTLVDPWGPQDIHMEQSILRRVQLGHSNEMRLHGVPSE
notes: the tag is inferred from the purification; also called RHIM 1 + 2 high-oligomer seed; source: E. coli BL21 Codonplus (DE3)-RIPL, purified (Ni-NTA, Superdex 200 10/300)

Assays:
[1] = molecular target: T1, GFP-tagged wild-type full-length ZBP1 (human); assay: co-IP; HT-29 cell lysates immunoprecipitated with an anti-GFP antibody, immunoblotted for RIP3
RIP1-RHIM (496-583) = RIP1-RHIM (496-583) (UniProt Q13546); assay: Thioflavin T fluorescence (cross-seeding); 10 μM denatured RIP1-RHIM diluted into native SEC buffer, 20 μM ThT, ZBP1-RHIM1 + 2 seeds at 1, 2 and 3 μM, 25 °C; both purified

Row | Molecule | binding [1] | binding (RIP1-RHIM (496-583))
1 | endogenous RIP3 (from UniProt Q9Y572 1-518) | binds | –
2 | B1 | – | binds
